# Data taken from patent US20050136444A1 (priority 2003, published 2005).
# Entries after “also recorded” stand apart in the source; their conditions may differ. At least one peptide structure holds a part that was inferred or is arguable (an end, a ring closure or a residue).
# How the values were obtained:
# [1] = tested on: L5/L6 SNL-induced Tactile Allodynia; assay: L5/L6 SNL-induced Tactile Allodynia; type: in vivo, rat; conditions: i.p.
# Description: This model of neuropathic pain was developed by Kim and Chung (Kim S H, Chung J M., “An experimental model for peripheral neuropathy produced by segmental spinal nerve ligation in the rat,” Pain, 1992 September; 50(3):355-63). This model requires the ligation of the L5 and L6 spinal nerves between the spinal cord and the entry point into the sciatic nerve. Seven to fourteen days following SNL surgery rats will be reassessed for their response thresholds to mechanical stimuli. For the assessment of paw withdrawal thresholds rats were allowed to acclimate within plexiglass enclosures for approximately 20 min. A series of calibrated von Frey filaments (1.56-15.0 g, logarithmically spaced) were applied to the plantar aspect of the injured hind paw until a response was elicited. Paw withdrawal thresholds to probing were determined according to a previously described method (Chaplan S R, Bach F W, Pogrel J W, Chung J M, Yaksh T L., “Quantitative assessment of tactile allodynia in the rat paw,” J Neurosci Methods, 1994 July;53(1):55-63). Paw withdrawal thresholds were determined to the nearest 0.1 g before surgery, then before and at multiple time points following compound administration. A significant reduction in the paw withdrawal threshold was interpreted as the presence of tactile allodynia.
# In order to study the endogenous activity of the NPFF system following injury to peripheral nerves, the activity of a FF1 receptor antagonist, dPQR, was assessed in a model of neuropathic pain. In this model, the L5 and L6 spinal nerves between the spinal cord and the entry point into the sciatic nerve were ligated (Kim & Chung, 1992). Seven to fourteen days following SNL surgery rats were reassessed for their response thresholds to mechanical stimuli. For the assessment of paw withdrawal thresholds rats were allowed to acclimate within plexiglass enclosures for approximately 20 min. A series of calibrated von Frey filaments (1.56-15.0 g, logarithmically spaced) were applied to the plantar aspect of the injured hind paw until a response was elicited. Paw withdrawal thresholds to probing were determined according to a previously described method (Chaplan et al., 1994). Paw withdrawal thresholds were determined to the nearest 0.1 g before surgery, then before and at multiple time points following compound administration. A significant reduction in the paw withdrawal threshold was interpreted as the presence of tactile allodynia.
# A model of neuropathic pain was created in rats by tight ligation of the L5 and L6 spinal nerves. […] Rats were then treated with various doses of Compound 1045 (1, 3 and 10 mg/kg, i.p.) and paw withdrawal thresholds were tested across a period of 2 hours.
# [2] = tested on: Compound 2616-induced Tactile Allodynia; assay: Compound 2616-induced Tactile Allodynia in naive rats, effect of dPQR; type: in vivo, rat; conditions: dPQR 30 mg/kg, i.p., in rats given Compound 2616 10 mg/kg i.p.
# Procedure: To confirm that the pronociceptive actions of Compound 2616 were mediated via NPFF1 receptors we performed a pharmacological experiment where we administered dPQR (Dansyl-Pro-Gln-Arg, a reported NPFF antagonist, custom synthesized by Phoenix Pharmaceuticals) to rats treated with Compound 2616. Baseline paw withdrawal thresholds were obtained in naive rats. Following testing, the rats received either vehicle or Compound 2616 (10 mg/kg, i.p.). […] Half of the rats that received Compound 2616 were then injected with either vehicle or dPQR (30 mg/kg, i.p.).
smiles,measurement,setting,value
"CN(C)c1cccc2c(S(=O)(=O)N3CCC[C@H]3C(=O)N[C@@H](CCC(N)=O)C(=O)N[C@@H](CCCNC(=N)N)C(N)=O)cccc12 [dPQR, Dansyl-Pro-Gln-Arg, reference compound]","maximum efficacy, reversal of tactile allodynia",[1]; SNL rats,76.7%
same,effect on L5/L6 SNL-induced tactile allodynia (paw withdrawal thresholds),"[1]; SNL rats, various doses",dose-dependent reversal of L5/L6 SNL-induced tactile allodynia; also recorded: dose-related reversal of tactile allodynia
same,"calculated A50, reversal of tactile allodynia","[1]; SNL rats, 95% CI",12.3 mg
same,sensitivity to non-noxious mechanical stimulation in sham-operated rats,"[1]; 10 mg/kg (1045, 2616), 30 mg/kg (dPQR)",did not significantly alter sensitivity to non-noxious mechanical stimulation
same,effect on tactile hypersensitivity elicited by Compound 2616,[2],significantly attenuated the tactile hypersensitivity elicited by Compound 2616; also recorded: completely blocked
